PubChem BioAssay AID743121 – NCATS | 2013
The whole screen tested about 26,000 reagents; shown is a part drawn at random. 167 of all reagents (0.63%) count as active. 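Calls are per gene from RSA p-values that are not deposited; an individual active-marked siRNA can sensitise only weakly.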 Unmarked entries are inactive. Reagents against one gene are numbered here.

- Assay: 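Knock-downs that sensitise breast cancer cells to camptothecin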 (primary screen)
- System: MDA-MB-231 cells, a human breast cancer line
- Knock-down reagent: single siRNA against human genes, 20 nM siRNA (0.8 pmol per well)
- Duration: 120 h (drug added 48 h after transfection, read 72 h later)
- Challenge: camptothecin 20 nM (about EC30) for 72 h; vehicle 0.1% DMSO in parallel plates
- Read-out: 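Cell viability by ATP luminescence (CellTiter-Glo) as % of non-targeting siRNA wells, and the log2 ratio of viability without drug over viability with camptothecin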
- Reading the numbers: log2 vehicle/camptothecin viability: higher = stronger sensitisation to camptothecin; viability with camptothecin and viability without drug: higher = more viable cells
- Active means: 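Each gene scored by redundant siRNA activity (RSA) over its individual siRNA ratios; a gene is called active at p < 0.001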

log2 vehicle/camptothecin viability,viability with camptothecin (% of control),viability without drug (% of control),gene knocked down,reagent
0.171,22,24.8,KMT5A,1
0.0271,67.9,69.2,KMT5A,2
-0.686,78.4,48.7,KMT5A,3
-0.023,89,87.6,SLC6A1,1
-0.0963,100,93.5,SLC6A1,2
0.102,57.1,61.3,SLC6A1,3
-0.186,101,89,SLC6A1,4
-0.0306,103,101,VBP1,1
-0.14,57.2,51.9,VBP1,2
-0.342,93,73.4,VBP1,3
-0.493,96.8,68.8,VBP1,4
0.0711,86.5,90.9,TOMM40,1
-0.0683,89.8,85.6,TOMM40,2
-0.589,36.7,24.4,TOMM40,3
-0.103,114,106,TOMM40,4
0.93,9.73,18.5,RAB6B,1
-0.327,91,72.5,RAB6B,2
0.155,78.4,87.2,RAB6B,3
0.0709,31.7,33.3,RAB6B,4
0.0517,101,104,SENP7,1
-0.0647,104,99.5,SENP7,2
0.0876,85.5,90.8,SENP7,3
-0.446,44.5,32.7,SENP7,4
-0.0353,103,100,OR1A1,1
0.157,64.1,71.5,OR1A1,2
-0.0296,101,98.5,OR1A1,3
-0.0676,14.2,13.6,OR1A1,4
-0.292,56.6,46.2,PPM1D,1
-0.117,70.3,64.8,PPM1D,2
-0.424,86.4,64.4,PPM1D,3
-0.0933,80.4,75.3,PPM1D,4
